According to the M2OR odorant receptor database:
The entries are a selection whose mix differs from that of the whole data set. The calls were merged from several studies; some rest on single wells.

By UniProt entry, the sequences of proteins in these tests, tags left out. Chains listed by the source or under a name are the forms on record and can include a tag or linker.
UniProt Q8VF06, as listed by the source: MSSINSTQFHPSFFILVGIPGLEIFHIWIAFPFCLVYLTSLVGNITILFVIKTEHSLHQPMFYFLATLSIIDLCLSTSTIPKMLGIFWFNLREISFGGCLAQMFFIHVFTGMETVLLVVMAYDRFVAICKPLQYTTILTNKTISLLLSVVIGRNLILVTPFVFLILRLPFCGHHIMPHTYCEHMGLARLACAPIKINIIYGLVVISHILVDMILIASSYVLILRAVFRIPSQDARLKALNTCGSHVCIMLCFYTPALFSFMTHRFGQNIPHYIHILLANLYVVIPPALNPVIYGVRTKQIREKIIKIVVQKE

Experiments:
Details in all cases: stereoisomer not certain
[1] = biological target: T1, UniProt Q8VF43
T1 sequence (whole entry): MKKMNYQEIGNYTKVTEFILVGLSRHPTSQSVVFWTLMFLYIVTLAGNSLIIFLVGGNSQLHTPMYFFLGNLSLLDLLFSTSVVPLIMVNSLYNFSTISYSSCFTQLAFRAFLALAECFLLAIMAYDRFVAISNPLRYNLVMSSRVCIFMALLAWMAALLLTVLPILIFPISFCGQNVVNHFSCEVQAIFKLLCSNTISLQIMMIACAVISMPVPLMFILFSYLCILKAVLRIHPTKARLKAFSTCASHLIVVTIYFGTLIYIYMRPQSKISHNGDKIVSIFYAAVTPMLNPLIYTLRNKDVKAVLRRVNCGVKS
How it was run: (§1)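 Each entry records the cell line, G-protein, co-transfected protein and tags used. Methods varied with the source, often transient luciferase assays in mammalian cell lines. A receptor–molecule pair is called responsive (active) if the original authors judged its signal statistically different from baseline and non-responsive (inactive) otherwise.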

[2] = biological target: T2, UniProt Q8VF52
T2 sequence (whole entry): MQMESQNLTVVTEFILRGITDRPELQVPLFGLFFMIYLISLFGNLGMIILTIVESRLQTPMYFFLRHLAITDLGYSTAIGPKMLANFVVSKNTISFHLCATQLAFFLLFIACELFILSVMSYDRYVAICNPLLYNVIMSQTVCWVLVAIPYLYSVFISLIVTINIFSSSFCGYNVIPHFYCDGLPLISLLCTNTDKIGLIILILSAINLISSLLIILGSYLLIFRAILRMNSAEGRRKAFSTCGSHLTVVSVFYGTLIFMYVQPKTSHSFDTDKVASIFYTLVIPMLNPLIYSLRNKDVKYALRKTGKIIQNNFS
How it was run: as §1

[3] = biological target: T3, UniProt Q8VEU7
T3 sequence (whole entry): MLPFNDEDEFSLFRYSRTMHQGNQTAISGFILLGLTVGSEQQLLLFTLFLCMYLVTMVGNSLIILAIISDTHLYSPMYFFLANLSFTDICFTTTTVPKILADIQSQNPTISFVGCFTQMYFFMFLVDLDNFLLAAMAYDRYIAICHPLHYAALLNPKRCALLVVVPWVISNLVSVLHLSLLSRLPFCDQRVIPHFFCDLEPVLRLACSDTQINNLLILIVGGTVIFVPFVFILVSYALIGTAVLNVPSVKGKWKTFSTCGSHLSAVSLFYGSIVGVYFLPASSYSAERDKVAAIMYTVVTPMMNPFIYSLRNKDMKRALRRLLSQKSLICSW
How it was run: as §1

[4] = biological target: T4, UniProt Q8VF05
T4 sequence (whole entry): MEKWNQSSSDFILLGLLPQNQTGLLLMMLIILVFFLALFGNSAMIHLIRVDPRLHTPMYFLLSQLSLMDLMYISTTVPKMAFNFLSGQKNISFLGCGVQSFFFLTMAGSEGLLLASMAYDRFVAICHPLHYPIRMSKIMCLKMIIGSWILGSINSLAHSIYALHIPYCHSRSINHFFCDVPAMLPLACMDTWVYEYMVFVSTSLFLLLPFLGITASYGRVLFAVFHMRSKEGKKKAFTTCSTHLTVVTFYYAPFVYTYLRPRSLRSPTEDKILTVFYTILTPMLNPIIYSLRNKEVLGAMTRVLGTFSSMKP
How it was run: as §1

[5] = biological target: T5, UniProt Q8VF24
T5 sequence (whole entry): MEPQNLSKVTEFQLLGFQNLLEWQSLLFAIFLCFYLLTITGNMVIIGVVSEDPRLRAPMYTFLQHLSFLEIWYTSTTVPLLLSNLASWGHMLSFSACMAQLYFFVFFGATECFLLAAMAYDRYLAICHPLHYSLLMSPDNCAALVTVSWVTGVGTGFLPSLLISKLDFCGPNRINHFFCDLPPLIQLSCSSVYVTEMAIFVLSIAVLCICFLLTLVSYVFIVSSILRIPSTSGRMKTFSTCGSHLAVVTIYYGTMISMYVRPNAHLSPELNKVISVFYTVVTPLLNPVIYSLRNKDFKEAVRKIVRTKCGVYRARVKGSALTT
How it was run: as §1

[6] = biological target: T6, UniProt Q8VF44
T6 sequence (whole entry): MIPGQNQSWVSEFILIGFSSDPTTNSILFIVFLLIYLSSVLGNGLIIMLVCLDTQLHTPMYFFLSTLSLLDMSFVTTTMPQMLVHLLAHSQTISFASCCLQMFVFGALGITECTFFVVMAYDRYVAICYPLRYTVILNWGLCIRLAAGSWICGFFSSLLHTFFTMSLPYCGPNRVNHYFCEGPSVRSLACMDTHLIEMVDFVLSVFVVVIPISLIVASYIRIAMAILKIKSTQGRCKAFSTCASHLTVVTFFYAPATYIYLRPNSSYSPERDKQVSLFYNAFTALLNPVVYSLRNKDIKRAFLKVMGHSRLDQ
How it was run: as §1

[7] = biological target: UniProt Q8VF06
How it was run: as §1

Measured: odorant receptor agonist call

C=CC(C)(O)CCC=C(C)C (configuration not stated)
inactive: [1] | [2]

CCCCCCCC=O
not listed: [7]
inactive: all other assays above

CCCCCC(C)=O
active: [4]
not listed: [7]
inactive: all other assays above

CCCCCCC=O
inactive: all assays above

CCCCCOC(C)=O
inactive: [7] | [1] | [2]

C=CCc1ccc(O)c(OC)c1
inactive: [7] | [1] | [2]

CC(C)CC(=O)O
inactive: [7] | [1] | [2]

CCCCO
inactive: [1] | [2]
